Results of single-concentration screens

From ChEMBL document CHEMBL3988442, “University of Dundee, Small-Polar-MMV Screening Library” (2021).

Mtb glucose medium: 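Phenotypic screen: M. tuberculosis growth, glucose 7H9 medium, 3 days; the read-out is not stated. Concentration: 50 µM. The record gives no direction; compounds that gave an IC50 in retests scored well above the rest, so higher reads as more growth inhibition. Size under these conditions: about 69,000 compounds, about 760 of them at 50% or above in at least one test.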
Mtb cholesterol medium: 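Growth of Mycobacterium tuberculosis over 4 days (cholesterol / DPPC medium with tyloxapol); the read-out is not stated. Concentration: 50 µM. Higher reads as more growth inhibition (inferred: compounds with an IC50 in retests scored well above the rest). Of about 69,000 compounds tested this way, about 370 (0.54%) reached 50% or more in at least one test.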

Values are the deposited “Percent Effect”, in %.
The controls that fix the scale are not given in the record; negative values are as filed.
The compounds are a random part of those screened.
Two or more numbers in one place are separate tests of the same structure; such repeats can differ widely.

{"compound": "CN(C)c1no[n+]([O-])c1-c1ccccc1", "Mtb glucose medium": "-12.02 & -28.38", "Mtb cholesterol medium": -16.9}
{"compound": "O=C(C1CCCC1)N1CCC(c2ncc3c(n2)CCNC3)C1", "stereo": "centres undefined", "Mtb glucose medium": -1.586, "Mtb cholesterol medium": -19.82}
{"compound": "Cc1cc(NC2CCN(c3ccccc3)C2)n2ncnc2n1", "stereo": "centres undefined", "Mtb glucose medium": -6.264, "Mtb cholesterol medium": 3.418}
{"compound": "CN1CCN([C@@H]2CN(C(=O)CCOc3ccccc3)C[C@H]2O)CC1", "Mtb glucose medium": 14.4, "Mtb cholesterol medium": "-0.4557 & -2.461"}
{"compound": "CN(C)c1cccc(C(=O)Nc2cnn(CC(N)=O)c2)c1", "Mtb glucose medium": "-15.44 & 1.987", "Mtb cholesterol medium": 2.051}
{"compound": "CCn1nc(CC(C)C)cc1C(=O)N1CC(c2ccncc2)C1", "Mtb glucose medium": 10.2, "Mtb cholesterol medium": -14.03}
{"compound": "CCN(CC)C1CCN(C(=O)c2cc3cc(C)cc(C)c3nc2C)CC1.Cl", "Mtb glucose medium": -6.882, "Mtb cholesterol medium": "-2.347 & 15.13"}
{"compound": "Cc1nc(N(Cc2ccncc2)CC2CCCO2)c2ccsc2n1", "stereo": "centres undefined", "Mtb glucose medium": "-2.997 & 11.11", "Mtb cholesterol medium": "-0.3327 & -0.9561"}
{"compound": "O=C(NC1CCCCC1)NC1CCCc2c1cnn2CCO", "stereo": "centres undefined", "Mtb glucose medium": 31.72, "Mtb cholesterol medium": "-0.9895 & -13.77"}
{"compound": "CCc1nc(CC(=O)NCC(Cc2ccc(F)cc2)C(N)=O)cs1", "stereo": "centres undefined", "Mtb glucose medium": "-20.15 & 2.663", "Mtb cholesterol medium": 12.47}
{"compound": "CC(C)c1ccc(C#N)c(N2CC(C)(C)[C@@](C)(O)C2)n1", "Mtb glucose medium": 8.693, "Mtb cholesterol medium": -0.07955}
{"compound": "CN1CCOC(CNCc2nc(-c3ccco3)no2)C1", "stereo": "centres undefined", "Mtb glucose medium": -24.65, "Mtb cholesterol medium": 12.22}
{"compound": "CCc1n[nH]c(C2CN(C(=O)c3nc(C)ncc3Cl)CCO2)n1", "stereo": "centres undefined", "Mtb glucose medium": 16.56, "Mtb cholesterol medium": 21.22}
{"compound": "CN(CCCc1cc(-c2ccc(F)cc2)n(C)n1)CC(N)=O", "Mtb glucose medium": 4.849, "Mtb cholesterol medium": 4.471}
{"compound": "Cc1nnc(N2CCCC3(CN(Cc4ccncc4)CCO3)C2)o1.O=C(O)C(F)(F)F.O=C(O)C(F)(F)F", "stereo": "centres undefined", "Mtb glucose medium": -23.74, "Mtb cholesterol medium": -27.91}
{"compound": "CC(C)NC(=O)CC1COC2(CCN(Cc3cccs3)CC2)C1.O=C(O)C(F)(F)F", "stereo": "centres undefined", "Mtb glucose medium": -14.12, "Mtb cholesterol medium": 9.718}
{"compound": "O=S1(=O)COCCN1Cc1cccc(Cl)c1", "Mtb glucose medium": 0.1441, "Mtb cholesterol medium": 18.68}
{"compound": "Cc1nn(C)c(Oc2ccccc2)c1CNC1CCOc2ccccc21", "stereo": "centres undefined", "Mtb glucose medium": 13.54, "Mtb cholesterol medium": -2.221}
{"compound": "Cc1cccc(CCNC(=O)CCS(=O)(=O)C2CCCC2)c1", "Mtb glucose medium": -11.57, "Mtb cholesterol medium": -22.87}
{"compound": "O=C(c1ccc(F)cc1)N1CCOC(c2nc(-c3ncccn3)no2)C1", "stereo": "centres undefined", "Mtb glucose medium": 24.38, "Mtb cholesterol medium": 17.89}
{"compound": "CCOCc1nc(N2CCCC2)sc1C(=O)NCc1ccco1", "Mtb glucose medium": 22.42, "Mtb cholesterol medium": 14.99}
{"compound": "Cc1ccc(N2CCC(NC(C)c3ccc(C)o3)CC2)nc1", "stereo": "centres undefined", "Mtb glucose medium": 0.2075, "Mtb cholesterol medium": -5.593}
{"compound": "CC1CCCCN1S(=O)(=O)NCCN/C(O)=C1/N=CC=CC1=O", "stereo": "centres undefined", "Mtb glucose medium": -16.98, "Mtb cholesterol medium": 15.21}
{"compound": "O=C(NC1CCCc2nc(N3CCOCC3)ncc21)C1CCCC1", "stereo": "centres undefined", "Mtb glucose medium": -0.4223, "Mtb cholesterol medium": 0.1888}
{"compound": "O=C(NCCNc1ccccn1)Nc1cc(C(F)(F)F)c[nH]c1=O", "Mtb glucose medium": -12.3, "Mtb cholesterol medium": 0.6948}
{"compound": "c1cncc(CN2CCC(NCCc3ccc4c(c3)OCO4)CC2)c1", "Mtb glucose medium": "-9.682 & 0.04191", "Mtb cholesterol medium": -14.28}
{"compound": "CCn1cc(CN2CCC(CN3CCCCC3)CC2)cc1C#N", "Mtb glucose medium": -8.168, "Mtb cholesterol medium": -13.56}
{"compound": "Cc1nc(NC(=O)N(C)Cc2ccoc2)nn1C", "Mtb glucose medium": -4.157, "Mtb cholesterol medium": "1.046 & 12.19"}
{"compound": "CN(Cc1nc(C2CC2)no1)C(=O)c1cccc(CC2CCNCC2)c1", "Mtb glucose medium": "0.6732 & -9.356", "Mtb cholesterol medium": 10.67}
{"compound": "Cc1cccc2[nH]c(C3CCN(C(=O)c4cnc[nH]c4=O)CC3)nc12", "Mtb glucose medium": 10.01, "Mtb cholesterol medium": "-5.232 & 4.962"}
{"compound": "Cc1cccc(C(C(=O)N(C)Cc2ccon2)N(C)C)c1", "stereo": "centres undefined", "Mtb glucose medium": 0.9427, "Mtb cholesterol medium": "-3.863 & -16.96"}
{"compound": "Cc1cccc(OC2CCN(c3ncc(C#N)cc3Cl)CC2)n1", "Mtb glucose medium": 34.28, "Mtb cholesterol medium": "29.13 & 23.82"}

Some entries from above, unchanged:

- CCn1cc(CN2CCC(CN3CCCCC3)CC2)cc1C#N | Mtb glucose medium: -8.168%; Mtb cholesterol medium: -13.56%
- O=C(NCCNc1ccccn1)Nc1cc(C(F)(F)F)c[nH]c1=O | Mtb glucose medium: -12.3%; Mtb cholesterol medium: 0.6948%
- Cc1ccc(N2CCC(NC(C)c3ccc(C)o3)CC2)nc1 (centres undefined) | Mtb glucose medium: 0.2075%; Mtb cholesterol medium: -5.593%